Counter-ions that a name gives are not always drawn. The list shows a part of the results. Hit calls seldom repeat between salt and free forms of one compound.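 Kinases were expressed as nanoluciferase fusions in K562 cells and luminescence was read every 4 h between 2 and 18 h as percent of control, DMSO set to 100% and a positive control to 0%. A time point counts as decreased when the signal drops significantly (2 sigma). The hit call is the authors' own, does not follow from the count of time points alone, and its rule is not shown.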
Columns and labels:
Assay in all cases: kinase-Nluc reporter destabilization hit call (1 = scored as downregulated) (binary); higher = compound decreases kinase abundance
Details in all cases: 10 µM; K562; 2-18 h
EGFR = EGFR (UniProt P00533)
EGFR_G719S = EGFR_G719S (UniProt P00533)
EGFR_G719S_T790M = EGFR_G719S_T790M (UniProt P00533)
EGFR_L718V = EGFR_L718V (UniProt P00533)
EGFR_L858R = EGFR_L858R (UniProt P00533)
EGFR_L861Q = EGFR_L861Q (UniProt P00533)
EGFR_T790M = EGFR_T790M (UniProt P00533)
EPHA2 = EPHA2 (UniProt P29317)
ERBB3 = ERBB3 (UniProt P21860)
[1] = molecular target: ERBB4_R711C (clone: ERBB4_mut) (UniProt Q15303)
ERN1 = ERN1 (UniProt O75460)
FGFR1 = FGFR1 (UniProt P11362)
FGFR2 = FGFR2 (UniProt P21802)
FGFR3 = FGFR3 (UniProt P22607)
FGR = FGR (UniProt P09769)
FLT3 = FLT3 (UniProt P36888)
FYN = FYN (UniProt P06241)
GSK3A = GSK3A (UniProt P49840)
HER2 = HER2 (UniProt P04626)
INSRR = INSRR (UniProt P14616)

Chains of the proteins cited; added tags and fusions are not shown. Lines headed by an entry give the natural chain unless they say otherwise; changes in a name come on top.
UniProt P29317, whole entry: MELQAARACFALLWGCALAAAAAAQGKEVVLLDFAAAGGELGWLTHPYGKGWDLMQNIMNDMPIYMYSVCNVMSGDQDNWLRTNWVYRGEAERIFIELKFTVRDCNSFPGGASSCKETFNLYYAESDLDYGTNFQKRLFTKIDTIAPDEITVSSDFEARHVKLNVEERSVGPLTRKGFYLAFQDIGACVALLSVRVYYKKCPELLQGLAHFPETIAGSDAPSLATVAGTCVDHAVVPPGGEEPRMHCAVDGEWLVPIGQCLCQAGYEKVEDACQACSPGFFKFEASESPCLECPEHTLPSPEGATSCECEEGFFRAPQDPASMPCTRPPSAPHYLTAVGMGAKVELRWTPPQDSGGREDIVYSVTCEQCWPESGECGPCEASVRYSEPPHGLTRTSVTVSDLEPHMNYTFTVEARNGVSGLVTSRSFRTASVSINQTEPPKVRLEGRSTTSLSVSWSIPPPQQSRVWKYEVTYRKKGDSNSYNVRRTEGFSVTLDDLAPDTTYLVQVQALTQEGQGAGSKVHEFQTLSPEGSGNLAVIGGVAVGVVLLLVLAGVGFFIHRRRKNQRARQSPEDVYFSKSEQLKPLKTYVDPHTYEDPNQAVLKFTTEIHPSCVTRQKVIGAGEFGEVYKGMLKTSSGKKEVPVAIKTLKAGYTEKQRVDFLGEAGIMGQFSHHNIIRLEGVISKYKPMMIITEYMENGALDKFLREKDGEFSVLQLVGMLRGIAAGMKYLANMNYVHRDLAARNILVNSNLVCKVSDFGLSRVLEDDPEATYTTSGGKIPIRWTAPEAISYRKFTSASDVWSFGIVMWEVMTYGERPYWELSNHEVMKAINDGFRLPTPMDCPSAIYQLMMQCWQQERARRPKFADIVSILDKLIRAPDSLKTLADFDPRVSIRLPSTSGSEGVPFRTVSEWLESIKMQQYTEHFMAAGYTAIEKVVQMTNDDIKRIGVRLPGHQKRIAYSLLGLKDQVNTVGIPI
UniProt O75460: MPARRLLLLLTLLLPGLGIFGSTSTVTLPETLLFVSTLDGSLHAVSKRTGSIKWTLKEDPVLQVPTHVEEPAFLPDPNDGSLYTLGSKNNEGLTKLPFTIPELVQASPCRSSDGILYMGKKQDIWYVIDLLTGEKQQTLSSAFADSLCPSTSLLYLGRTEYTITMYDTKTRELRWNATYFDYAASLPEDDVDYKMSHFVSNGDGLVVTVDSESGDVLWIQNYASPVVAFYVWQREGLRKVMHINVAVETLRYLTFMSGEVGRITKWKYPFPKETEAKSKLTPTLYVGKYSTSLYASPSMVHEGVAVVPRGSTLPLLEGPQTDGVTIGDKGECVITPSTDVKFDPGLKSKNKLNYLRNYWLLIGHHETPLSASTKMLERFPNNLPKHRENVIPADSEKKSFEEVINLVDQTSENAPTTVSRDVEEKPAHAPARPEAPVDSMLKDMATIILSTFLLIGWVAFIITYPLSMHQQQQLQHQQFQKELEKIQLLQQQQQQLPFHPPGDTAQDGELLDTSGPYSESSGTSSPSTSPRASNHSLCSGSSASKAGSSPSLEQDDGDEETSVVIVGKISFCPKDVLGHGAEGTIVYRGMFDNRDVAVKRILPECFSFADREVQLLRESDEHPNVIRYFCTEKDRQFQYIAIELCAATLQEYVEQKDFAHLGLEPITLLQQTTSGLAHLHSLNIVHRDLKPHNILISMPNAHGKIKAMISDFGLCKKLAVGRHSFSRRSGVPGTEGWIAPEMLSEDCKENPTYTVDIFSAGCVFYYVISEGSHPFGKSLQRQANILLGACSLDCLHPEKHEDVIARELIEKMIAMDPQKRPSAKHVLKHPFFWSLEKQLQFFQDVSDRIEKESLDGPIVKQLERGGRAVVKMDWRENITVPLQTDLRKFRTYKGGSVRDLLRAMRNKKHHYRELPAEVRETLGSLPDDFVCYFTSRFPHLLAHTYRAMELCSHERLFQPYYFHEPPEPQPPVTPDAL
UniProt P11362, whole entry, looked up: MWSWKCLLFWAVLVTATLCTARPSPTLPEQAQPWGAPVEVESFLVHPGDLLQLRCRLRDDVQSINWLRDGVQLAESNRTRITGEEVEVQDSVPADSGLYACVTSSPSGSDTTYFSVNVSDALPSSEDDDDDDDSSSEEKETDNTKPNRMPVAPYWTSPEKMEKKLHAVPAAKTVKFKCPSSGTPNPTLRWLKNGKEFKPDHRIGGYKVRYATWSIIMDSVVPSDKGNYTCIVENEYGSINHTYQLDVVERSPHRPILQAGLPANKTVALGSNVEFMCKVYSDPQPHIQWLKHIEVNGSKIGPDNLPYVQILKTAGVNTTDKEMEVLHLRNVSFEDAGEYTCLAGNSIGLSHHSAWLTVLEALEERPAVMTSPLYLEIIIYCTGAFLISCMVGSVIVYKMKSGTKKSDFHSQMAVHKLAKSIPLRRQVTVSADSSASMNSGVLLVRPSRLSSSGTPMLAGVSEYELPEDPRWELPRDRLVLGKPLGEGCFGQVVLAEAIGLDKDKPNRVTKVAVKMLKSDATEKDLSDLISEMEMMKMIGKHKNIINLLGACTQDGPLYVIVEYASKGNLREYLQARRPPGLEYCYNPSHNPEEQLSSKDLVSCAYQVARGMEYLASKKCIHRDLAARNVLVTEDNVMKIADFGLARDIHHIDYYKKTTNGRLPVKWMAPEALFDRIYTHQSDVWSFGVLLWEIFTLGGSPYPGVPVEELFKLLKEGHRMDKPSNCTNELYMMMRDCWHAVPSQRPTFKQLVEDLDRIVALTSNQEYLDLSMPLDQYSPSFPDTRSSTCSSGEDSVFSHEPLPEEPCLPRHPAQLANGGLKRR
UniProt P22607, whole entry, looked up: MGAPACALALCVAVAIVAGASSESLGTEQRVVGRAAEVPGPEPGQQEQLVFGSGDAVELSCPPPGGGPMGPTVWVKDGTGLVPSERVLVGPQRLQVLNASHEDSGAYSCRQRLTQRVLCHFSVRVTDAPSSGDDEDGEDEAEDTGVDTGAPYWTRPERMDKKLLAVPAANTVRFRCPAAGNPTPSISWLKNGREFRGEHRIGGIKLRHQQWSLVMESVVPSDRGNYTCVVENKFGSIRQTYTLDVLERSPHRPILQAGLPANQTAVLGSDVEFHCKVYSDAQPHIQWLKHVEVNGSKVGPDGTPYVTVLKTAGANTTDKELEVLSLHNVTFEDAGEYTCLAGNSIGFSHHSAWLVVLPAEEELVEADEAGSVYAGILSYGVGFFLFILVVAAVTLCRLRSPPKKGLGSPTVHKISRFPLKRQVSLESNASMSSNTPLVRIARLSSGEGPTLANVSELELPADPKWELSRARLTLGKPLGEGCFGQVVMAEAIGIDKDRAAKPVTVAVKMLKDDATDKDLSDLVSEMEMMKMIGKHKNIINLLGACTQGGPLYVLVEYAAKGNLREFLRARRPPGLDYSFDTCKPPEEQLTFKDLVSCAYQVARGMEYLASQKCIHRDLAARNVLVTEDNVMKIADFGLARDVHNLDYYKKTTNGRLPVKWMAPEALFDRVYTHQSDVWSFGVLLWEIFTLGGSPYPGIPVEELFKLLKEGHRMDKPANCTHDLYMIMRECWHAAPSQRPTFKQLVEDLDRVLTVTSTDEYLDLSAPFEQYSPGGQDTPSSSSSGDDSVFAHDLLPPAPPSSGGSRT
UniProt P36888, whole entry: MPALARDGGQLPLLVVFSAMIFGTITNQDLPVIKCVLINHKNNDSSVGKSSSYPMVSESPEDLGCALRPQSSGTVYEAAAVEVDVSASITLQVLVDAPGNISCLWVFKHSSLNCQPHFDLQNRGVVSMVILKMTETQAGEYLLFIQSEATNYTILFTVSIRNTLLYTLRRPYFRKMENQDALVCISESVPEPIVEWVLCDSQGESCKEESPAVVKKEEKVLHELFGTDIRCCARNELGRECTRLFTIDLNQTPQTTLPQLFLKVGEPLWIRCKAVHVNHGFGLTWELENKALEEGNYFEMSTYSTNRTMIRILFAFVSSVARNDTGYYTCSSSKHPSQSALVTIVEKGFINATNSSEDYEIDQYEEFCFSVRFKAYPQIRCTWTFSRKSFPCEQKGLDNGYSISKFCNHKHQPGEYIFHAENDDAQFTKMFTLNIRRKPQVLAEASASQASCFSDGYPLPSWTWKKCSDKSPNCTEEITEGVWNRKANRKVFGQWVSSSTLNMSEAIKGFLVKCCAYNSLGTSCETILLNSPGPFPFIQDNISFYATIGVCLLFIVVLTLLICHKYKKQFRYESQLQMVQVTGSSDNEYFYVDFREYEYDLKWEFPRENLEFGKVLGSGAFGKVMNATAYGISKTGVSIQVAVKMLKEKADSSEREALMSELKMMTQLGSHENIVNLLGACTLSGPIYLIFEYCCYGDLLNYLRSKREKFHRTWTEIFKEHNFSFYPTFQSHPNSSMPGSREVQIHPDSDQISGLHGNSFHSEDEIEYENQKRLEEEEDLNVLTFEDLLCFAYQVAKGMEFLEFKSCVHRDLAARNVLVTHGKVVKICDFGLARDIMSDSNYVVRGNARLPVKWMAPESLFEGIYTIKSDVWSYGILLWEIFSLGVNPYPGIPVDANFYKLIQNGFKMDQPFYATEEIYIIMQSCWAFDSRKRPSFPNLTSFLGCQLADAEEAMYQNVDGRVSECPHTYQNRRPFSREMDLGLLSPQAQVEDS
UniProt P06241, whole entry, looked up: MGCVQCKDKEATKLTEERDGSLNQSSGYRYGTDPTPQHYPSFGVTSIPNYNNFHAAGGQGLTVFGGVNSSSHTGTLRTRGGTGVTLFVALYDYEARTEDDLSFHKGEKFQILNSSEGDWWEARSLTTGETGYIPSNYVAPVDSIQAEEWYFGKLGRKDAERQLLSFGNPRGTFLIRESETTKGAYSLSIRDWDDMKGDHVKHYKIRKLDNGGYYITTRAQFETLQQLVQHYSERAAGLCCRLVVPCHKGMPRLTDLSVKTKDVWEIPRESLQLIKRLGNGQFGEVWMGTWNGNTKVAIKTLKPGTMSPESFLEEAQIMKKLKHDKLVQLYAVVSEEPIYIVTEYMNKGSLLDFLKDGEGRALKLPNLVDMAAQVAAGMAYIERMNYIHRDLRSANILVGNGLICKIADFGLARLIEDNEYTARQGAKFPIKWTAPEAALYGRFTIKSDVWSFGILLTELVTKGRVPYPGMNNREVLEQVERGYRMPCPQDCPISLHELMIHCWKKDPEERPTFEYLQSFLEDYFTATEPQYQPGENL
UniProt P14616: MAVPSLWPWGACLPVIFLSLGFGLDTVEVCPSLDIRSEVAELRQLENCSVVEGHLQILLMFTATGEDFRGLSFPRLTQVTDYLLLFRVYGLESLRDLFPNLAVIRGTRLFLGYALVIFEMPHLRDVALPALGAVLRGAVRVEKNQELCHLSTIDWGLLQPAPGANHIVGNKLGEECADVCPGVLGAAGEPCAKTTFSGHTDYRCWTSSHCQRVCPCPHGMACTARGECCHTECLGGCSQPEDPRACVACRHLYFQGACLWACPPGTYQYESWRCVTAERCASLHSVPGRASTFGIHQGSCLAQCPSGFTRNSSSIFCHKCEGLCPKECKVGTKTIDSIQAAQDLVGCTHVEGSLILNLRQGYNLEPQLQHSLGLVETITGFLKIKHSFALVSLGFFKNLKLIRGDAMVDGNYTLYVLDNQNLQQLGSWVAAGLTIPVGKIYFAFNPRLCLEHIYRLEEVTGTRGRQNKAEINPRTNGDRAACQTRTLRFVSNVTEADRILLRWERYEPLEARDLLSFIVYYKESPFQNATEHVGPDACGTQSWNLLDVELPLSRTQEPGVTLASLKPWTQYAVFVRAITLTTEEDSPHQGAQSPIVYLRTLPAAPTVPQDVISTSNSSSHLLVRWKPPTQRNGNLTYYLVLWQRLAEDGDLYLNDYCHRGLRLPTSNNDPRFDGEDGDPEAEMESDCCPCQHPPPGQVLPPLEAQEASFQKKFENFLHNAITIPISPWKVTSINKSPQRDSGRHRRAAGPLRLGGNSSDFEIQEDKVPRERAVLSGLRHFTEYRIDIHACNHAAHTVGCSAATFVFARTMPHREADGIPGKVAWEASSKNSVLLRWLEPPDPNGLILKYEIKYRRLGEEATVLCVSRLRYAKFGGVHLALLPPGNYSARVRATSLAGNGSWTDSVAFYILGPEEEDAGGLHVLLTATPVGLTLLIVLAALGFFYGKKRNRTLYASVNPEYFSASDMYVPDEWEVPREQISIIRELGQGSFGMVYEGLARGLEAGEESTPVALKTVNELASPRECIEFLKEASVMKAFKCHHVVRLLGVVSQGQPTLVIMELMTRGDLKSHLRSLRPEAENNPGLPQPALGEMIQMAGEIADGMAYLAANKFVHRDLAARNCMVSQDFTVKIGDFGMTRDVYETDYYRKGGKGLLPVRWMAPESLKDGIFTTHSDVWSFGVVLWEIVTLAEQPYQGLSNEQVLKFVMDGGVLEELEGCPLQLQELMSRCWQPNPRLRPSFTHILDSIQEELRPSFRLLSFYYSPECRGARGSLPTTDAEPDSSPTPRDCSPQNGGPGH

Measured: kinase-Nluc reporter destabilization hit call

CNc1ncc2cc(-c3ccc(-c4cccc(C)n4)cc3Cl)c(=O)n(C[C@H]3OC[C@H](N)CO3)c2n1
inactive: EGFR 0 | EGFR_G719S 0 | EGFR_G719S_T790M 0 | EGFR_L718V 0 | EGFR_L858R 0 | EGFR_L861Q 0 | EGFR_T790M 0 | EPHA2 = 0 | ERBB3 = 0 | [1] 0 | ERN1 = 0 | FGFR1 = 0 | FGFR2 = 0 | FGFR3 = 0 | FGR 0 | FLT3 = 0 | FYN 0 | GSK3A 0 | HER2 = 0 | INSRR 0

C=CC(=O)Nc1cc(Nc2ncc(C(=O)OC(C)C)c(-c3cn(C)c4ccccc34)n2)c(OC)cc1N(C)CCN(C)C [Mobocertinib (succinate)]
inactive: EGFR 0 | EGFR_G719S 0 | EGFR_G719S_T790M 0 | EGFR_L718V 0 | EGFR_L858R 0 | EGFR_L861Q 0 | EGFR_T790M 0 | EPHA2 = 0 | ERBB3 = 0 | [1] 0 | ERN1 = 0 | FGFR1 = 0 | FGFR2 = 0 | FGFR3 = 0 | FGR 0 | FLT3 = 0 | FYN 0 | GSK3A 0 | HER2 = 0 | INSRR 0

CN(C)C(=N)NC(=N)N [Metformin (hydrochloride)]
inactive: EGFR 0 | EGFR_G719S 0 | EGFR_G719S_T790M 0 | EGFR_L718V 0 | EGFR_L858R 0 | EGFR_L861Q 0 | EGFR_T790M 0 | EPHA2 = 0 | ERBB3 = 0 | [1] 0 | ERN1 = 0 | FGFR1 = 0 | FGFR2 = 0 | FGFR3 = 0 | FGR 0 | FLT3 = 0 | FYN 0 | GSK3A 0 | HER2 = 0 | INSRR 0

COc1cc2nccc(Nc3cc(OC)c(OC)c(OC)c3)c2cc1OC [GAK inhibitor 49]
inactive: EGFR 0 | EGFR_G719S 0 | EGFR_G719S_T790M 0 | EGFR_L718V 0 | EGFR_L858R 0 | EGFR_L861Q 0 | EGFR_T790M 0 | EPHA2 = 0 | ERBB3 = 0 | [1] 0 | ERN1 = 0 | FGFR1 = 0 | FGFR2 = 0 | FGFR3 = 0 | FGR 0 | FLT3 = 0 | FYN 0 | GSK3A 0 | HER2 = 0 | INSRR 0
